Measurements from US6994981B2, “Modulators of paraptosis and related methods” (The Buck Institute, priority 2002, dated 2006).
Some entries share one result that the patent states for a list of compounds.

Test system: rat neuronal primary cell cultures
Assay: Induction of paraptosis in rat neuronal primary cell cultures, LDH cell death assay
Format: cell-based
Protocol: Rat neuronal primary cell cultures were also used to assay for inducers and inhibitors of paraptosis. Briefly, primary striatal, cortical and hippocampal cultures were prepared from 17-day-old Sprague-Dawley rat embryos (B&K). The tissue was dissected, minced and trypsinized for five minutes using 0.25% trypsin (Cell Grow). After the addition of 10% horse serum (Life Technologies) to inhibit the trypsin, the cell suspension was triturated 15–20 times with a 10 ml syringe and centrifuged for five minutes at 800×g. The pellet was resuspended in MEM-PAK (UCSF Cell Culture facility), supplemented with 2.02 gm glucose, 2 mM GLUTAMAX™ (Life Technologies) and penicillin/streptomycin (100 U/ml). […]
Subsequently, compounds were added to 293T cells and/or rat neuronal primary cell culture cells in order to determine if the compounds could induce paraptosis. Cell death was assayed using the lactate dehydrogenase (LDH) assay, in which the relative amount of enzyme released from dying cells in the medium is measured by following the disappearance of nicotinamide adenine dinucleotide, reduced form (NADH) in the following reaction: pyruvate+NADH <−>NAD^++ lactate. […] NADH disappearance was assessed by kinetic photmetric readings at a 340 nm wavelength at 19 minute intervals over a period of 2 hours and 30 minutes.

Row | Compound | concentration at which found to induce paraptosis [µM]
1 | Cc1onc(O)c1CC(N)C(=O)O (stereo not drawn) [AMPA, alpha-amino-3-hydroxy-5-methyl-4-isoxazolepropionic acid] | 35 to 500
2 | C=C(C)C1CNC(C(=O)O)C1CC(=O)O (centres unmarked) [Kainic Acid, 2-Carboxy-3-carboxymethyl-4-isopropenylpyrrolidine] | 35 to 500
